In patent US20100204182A1, “ECTONUCLEOTIDASE INHIBITORS” (RHEINISCHE FRIEDRICH-WILHELMS-UNIVERSITAT BONN, priority 2006, published 2010):

System: luciferase
Assay: Interference with the luciferase assay for ATP determination
Details: in words

SMILES	interference with the luciferase assay for ATP determination
CCOP(=O)(Cc1ccc(NC(=O)CNC(=O)[C@H]2O[C@@H](n3ccc(=O)[nH]c3=O)C(O)C2O)cc1)OCC (stereo in doubt) [AMB246.1, 4-[2-((2S,3R,4S,5R)-5-(2,4-Dioxo-3,4-dihydropyrimidin-1(2H)-yl)-3,4-dihydroxy-tetrahydrofurane-2-carboxamido)ethaneamido]benzylphosphonic acid diethylester]	not to interfere
CCN(CC)c1ncnc2c1ncn2C1OC(COP(=O)(O)OP(=O)(O)C(Br)(Br)P(=O)(O)O)C(O)C1O (stereo not drawn) [ARL67156, N^6-Diethyl-β,γ-dibromomethylene-ATP]	interferes with that assay
